The other results are listed elsewhere or left out. Further columns of the screen follow, without active or inactive calls. Compounds called inactive in the main read-out are mostly missing here. Words in brackets tell the shape of the fitted curve; partial curves, single points and poor fits give uncertain potencies.
Test: qHTS Assay for Lipid Storage Modulators in Drosophila S3 Cells;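 as to cell number change: cells counted by Cell Tracker Red CMTPX staining in the red channel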
Settings: BODIPY lipid droplet fluorescence, 18-24 h; for cell number change: measured here: cell count max response, cells fed with added oleic acid
In short: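 Drosophila S3 cells got compounds at several concentrations plus oleic acid (400 uM solution). Laser-scanning cytometry with 488 nm excitation read lipid droplets at 500-530 nm and cells at 575-640 nm. Percent activity was relative to 20 uM Triacsin C.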

[1] = measured here: lipid fluorescence (Fed channel) AC50, cells fed with added oleic acid
[2] = measured here: cell number channel AC50, cells fed with added oleic acid

SMILES | cell number change [%] | AC50 [1] | AC50 [2]
CCc1ccc(OC)c(S(=O)(=O)Nc2ccccc2C)c1 | 8.4 | 1.84 µM [rising, partial curve] | 
COc1ccc(/C=C/C(=O)c2oc3ccc(F)cc3c2C)cc1 |  | 0.58 µM [rising, single point] | 
Cn1c(=O)c(=O)n(C)c2cc(N3CCOCC3)c(NS(=O)(=O)c3ccc(Br)cc3)cc21 |  | 2.31 µM [falling, partial curve] | 
CCc1ccccc1N1C(=O)CC(Sc2nccc(C)n2)C1=O (stereo not given) | -2.91 | 25.9 µM [falling, single point] | 
O=C(Nc1ccc(CN2CCCCC2)cc1)c1ccc(Br)o1 | -0.364 | 11.6 µM [rising, single point] | 
COc1cc(-c2nnc(COC(=O)C3c4ccccc4Oc4ccccc43)o2)cc(OC)c1OC | -6.54 |  | 
COc1ccc(C(=O)CC2(C(=O)O)CCCCC2)cc1 | 8.73 |  | 
COc1ccc(CC(=O)Nc2cccc(/C(C)=N/NC(=O)c3cccc([N+](=O)[O-])c3)c2)cc1 | -12.8 |  | 
CC(C)CCCN1C(N(C)C)=NC[C@@H]1C | 15 |  | 
CC(C)(C)c1cc(CN2CCN(CCO)CC2)cc(C(C)(C)C)c1O | -11.4 | 14.6 µM [falling, single point] | 
COc1ccc(C(=O)NCc2nnc(SCC(=O)Nc3cccc(OC)c3)o2)cc1 |  | 6.51 µM [rising, single point] | 
CCCn1c(=N)n(CC(=O)C(C)(C)C)c2ccccc21 | -37.1 | 29.1 µM [falling, single point] | 16.4 µM [falling, single point]
O=C(CC(=O)c1ccccc1)Nc1cc([N+](=O)[O-])ccc1Cl | 13.9 | 23.1 µM [falling, single point] | 
Clc1cc(Br)ccc1NCc1cccnc1 | -14.9 |  | 
C=CCn1c(SCn2nnc3ccccc3c2=O)nnc1-c1ccc(F)cc1 | 5.19 | 23.1 µM [rising, single point] | 
CCn1nc(C)cc1C(=O)N1CCCC(C(=O)c2ccc(OC)cc2C)C1 (stereo not given) | -6.76 | 6.51 µM [rising, partial curve] | 
CCc1nn(C(CC)C(=O)NCCCN2CC(C)CC(C)C2)c(=O)c2cc3oc(C)cc3n12 (stereo not given) | 37.3 | 29.1 µM [rising, single point] | 32.6 µM [rising, single point]
COC(=O)c1ccccc1NC(=O)Cn1cnc([N+](=O)[O-])c1 | 15.1 | 29.1 µM [rising, single point] | 
C=CC1C(OC2OC(CO)C(O)C(O)C2O)OC=C(C(=O)OC)C1CC1CC(=O)CC(CC(=O)CCc2ccc(O)cc2)O1 (stereo not given) | -17 | 29.1 µM [falling, single point] | 
Cc1cccc(N(C(=O)CCC(=O)Nc2cc(C)on2)C(C(=O)NC2CCCC2)c2ccc(C)o2)c1 (stereo not given) | 12.6 |  | 5.8 µM [rising, partial curve, poor fit]
O=C(Nc1cc(S(=O)(=O)N2CCCC2)ccc1OCC(F)(F)F)c1ccccc1F | -2.3 | 0.103 µM [falling, full curve] | 

SMILES | cell number change [%] | AC50 [1] | AC50 [2]
N=C1/C(=C/c2cccn2CCOc2ccccc2)C(=O)N=C2SC=C(c3ccccc3)N12 | 6.01 | 2.91 µM [rising, partial curve] | 
CCSc1nnc(NC(=O)CCNS(=O)(=O)c2cc(Br)cnc2N)s1 |  | 1.3 µM [falling, full curve] | 
Cc1occc1C(=O)NNC(=S)NCc1ccc(Cl)cc1 | -14.9 | 0.461 µM [falling, full curve, poor fit] | 0.461 µM [falling, partial curve, poor fit]
CCn1cc(C(=O)NCCCOC)c(=O)c2cc(S(=O)(=O)N3CCCC3)ccc21 | -32.9 |  | 32.6 µM [falling, single point]
CCCCCN(C(=O)NC(=O)NCCCC)S(C)(=O)=O | 14.4 | 6.51 µM [falling, single point] | 
c1csc(-c2cnc3ccccc3n2)c1 | 0.917 |  | 
O=C(CSc1ncccn1)N1CCN(C(=O)CSc2ncccn2)CC1 | -27.8 | 18.4 µM [falling, single point] | 
COC(=O)c1ccc(C(=O)Nc2nc3cc(N)c(C)cc3s2)cc1 | -8.11 | 29.1 µM [falling, single point] | 
Cc1nc2ccc(N3C(=O)CCC3=O)cc2[nH]1 |  |  | 0.58 µM [rising, single point]
N#CC1=C(S)N=C(N)C(c2nc(-c3ccccc3)cs2)C12CCCC2 (stereo not given) | 11.6 | 6.51 µM [falling, single point] | 
CC(C)C(C(=O)NCC1CCCO1)N(Cc1ccco1)C(=O)CNS(=O)(=O)c1ccccc1 (stereo not given) | 55.7 |  | 18.4 µM [rising, single point]
COc1ccc(NC(=O)CSCC(=O)N2CCN(C(=O)c3ccco3)CC2)cc1 | 23.5 | 3.66 µM [rising, full curve, poor fit] | 
C=CCn1c(-c2ccc(OC)cc2)nc2nc3ccccc3nc21 | 20.1 | 0.92 µM [rising, partial curve] | 0.206 µM [rising, full curve, poor fit]
O=C(Cn1cc2c(n1)CCCC2)NCC1CCCO1 (stereo not given) | -79.4 | 0.411 µM [falling, full curve, poor fit] | 1.46 µM [falling, full curve]
CC1(C)NC(=O)N(CC(=O)OCC(=O)Nc2cc(S(=O)(=O)N3CCCCC3)ccc2Cl)C1=O | -31.9 | 0.092 µM [rising, full curve] | 18.4 µM [falling, single point]
Cc1ccc(NC(=O)CSc2nnc(C)n2CC2CCCO2)cc1 (stereo not given) | 126 |  | 0.58 µM [rising, single point]
COc1ccccc1C(=O)N/C(=C\c1ccc(Br)cc1)C(=O)NCCO |  | 0.58 µM [rising, single point] | 
Cc1cc(C(=O)CN2C(=O)CN(C)C2=O)c(C)n1-c1cccc(S(=O)(=O)N2CCOCC2)c1 | 71.3 |  | 18.4 µM [rising, single point]
Cc1cccc(N2CCN(C(c3ccc(N(C)C)cc3)c3nnnn3C(C)(C)C)CC2)c1C (stereo not given) | 33.4 | 3.66 µM [rising, partial curve] | 29.1 µM [rising, single point]
COc1ccc(C(=O)CSc2nnc(CNC(=O)c3ccccc3)o2)cc1 | 9.76 | 23.1 µM [falling, single point] | 
CCOc1ccc(/C=N/NC(=O)c2ccc(Cn3cc([N+](=O)[O-])cn3)o2)cc1 |  | 3.26 µM [rising, full curve] | 0.116 µM [rising, full curve, poor fit]

Grouped by structure, the compounds so far with a tert-butyl group (three)
SMILES | cell number change [%] | AC50 [1] | AC50 [2]
CC(C)(C)c1cc(CN2CCN(CCO)CC2)cc(C(C)(C)C)c1O | -11.4 | 14.6 µM [falling, single point] | 
CCCn1c(=N)n(CC(=O)C(C)(C)C)c2ccccc21 | -37.1 | 29.1 µM [falling, single point] | 16.4 µM [falling, single point]
Cc1cccc(N2CCN(C(c3ccc(N(C)C)cc3)c3nnnn3C(C)(C)C)CC2)c1C (stereo not given) | 33.4 | 3.66 µM [rising, partial curve] | 29.1 µM [rising, single point]

Continuation:

SMILES | cell number change [%] | AC50 [1] | AC50 [2]
COc1ccc(N2CCN(C(CNC(=O)C(=O)NCCCn3ccnc3)c3ccco3)CC2)cc1 (stereo not given) | 26.1 | 29.1 µM [rising, single point] | 
O=C(NC1CCN(C(=O)Nc2ccccc2Cl)CC1)c1cccc(F)c1 | -9.52 | 18.4 µM [falling, single point] | 
COc1ccc(NC(=O)CCCCCn2nnc3ccccc3c2=O)cc1 | 40.4 |  | 1.84 µM [rising, partial curve]
Cc1ccccc1-n1nnnc1SCC(=O)NNC(=O)c1ccc(NC(=O)CC#N)cc1 | 8.67 | 1.03 µM [rising, full curve] | 
CC[n+]1c(/C=C/Nc2ccccc2)oc2ccccc21 | -17.7 | 3.26 µM [falling, partial curve] | 
CN(C)c1ccc(CN2CCCCCC2)cc1 | -23.2 |  | 
COc1cc(NC(=O)c2cccc(NC3=NC4CS(=O)(=O)CC4S3)c2)cc(OC)c1OC (stereo not given) | 29.7 |  | 
Cc1cccc(NC(=O)NCc2ccc3c(c2)cc(C)n3C)c1 | -16.7 | 29.1 µM [falling, single point] | 
Oc1ccc(C[C@H]2CNCCN2CCc2cccc(F)c2)cc1 | -16.8 | 18.4 µM [rising, single point] | 
CC(/C=C\c1ccccc1)=C/C(=O)O |  | 32.6 µM [rising, single point] | 
CCc1cccc(C)c1NC(=S)NCCc1c(C)[nH]c2ccc(C)cc12 | -15.3 |  | 
Cc1ccc(S(=O)(=O)CCC(=O)Nc2ccccc2C)cc1 | -6.31 | 29.1 µM [falling, single point] | 
CC(=O)N1c2ccc(S(=O)(=O)N(C)CC(=O)NCc3ccc(C)cc3)cc2CC1C (stereo not given) | 38.9 | 25.9 µM [rising, single point] | 6.51 µM [rising, partial curve, poor fit]
COc1ccc(CC(=O)Nc2c3c(nn2-c2cccc(C)c2C)CS(=O)C3)cc1OC (stereo not given) | 11.7 | 0.0103 µM [falling, full curve, poor fit] | 
CCc1cccc(NC(=O)CN(c2ccc(OC)cc2)S(=O)(=O)c2c(C)n[nH]c2C)c1 | -2.12 | 20.6 µM [rising, single point] | 
Cc1cccc(CCNC(=O)C2CCN(S(=O)(=O)c3c(C)noc3C)CC2)c1 |  |  | 2.31 µM [rising, single point]
OCCNCc1cccc2ccccc12 | 118 |  | 
CN(C(=O)COC(=O)c1n[nH]c(=O)c2ccccc12)c1ccccc1 | -10.9 | 0.164 µM [falling, full curve, poor fit] | 0.146 µM [falling, full curve, poor fit]
CC(C)c1ccccc1NC(=O)c1ccco1 | -0.195 |  | 
CCCN1CCN(CCCNC(=O)c2ccc3nc(N4CCCCC4)sc3c2)CC1 | 23.7 | 6.51 µM [rising, single point] | 0.0058 µM [rising, full curve, poor fit]

From PubChem BioAssay AID2685 (National Center for Advancing Translational Sciences (NCATS), 2010)
